Source: the supplement of paper PMC12823440, “Inhibitors supercharge kinase turnover through native proteolytic circuits” (Nature, 2025)
The list shows a part of the results. Hit calls seldom repeat between salt and free forms of one compound.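 In K562 cells expressing nanoluciferase-fused kinases, luminescence was recorded at 4 h intervals between 2 and 18 h, normalized as percent of control with DMSO at 100% and a positive control at 0%. A significant (2 sigma) signal drop marks a time point as decreased. The authors' rule for a hit is not shown and takes in more than the number of time points.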

By UniProt entry, the sequences of proteins in these tests, tags left out. Where a name states a change or a piece, a line headed by the entry shows the natural chain unless it says otherwise.
UniProt Q15208: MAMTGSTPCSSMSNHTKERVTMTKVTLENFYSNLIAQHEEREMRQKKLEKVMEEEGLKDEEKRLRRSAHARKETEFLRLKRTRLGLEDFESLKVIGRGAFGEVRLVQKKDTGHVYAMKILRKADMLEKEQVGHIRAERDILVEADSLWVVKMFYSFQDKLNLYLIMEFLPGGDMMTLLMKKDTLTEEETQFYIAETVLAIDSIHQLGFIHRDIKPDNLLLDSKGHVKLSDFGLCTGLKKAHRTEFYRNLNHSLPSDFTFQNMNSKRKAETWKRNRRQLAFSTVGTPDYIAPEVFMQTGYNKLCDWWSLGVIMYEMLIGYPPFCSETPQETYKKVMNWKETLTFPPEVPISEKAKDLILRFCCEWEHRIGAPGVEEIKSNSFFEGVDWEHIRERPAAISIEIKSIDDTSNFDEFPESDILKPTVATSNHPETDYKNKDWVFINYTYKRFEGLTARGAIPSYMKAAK
UniProt P42680: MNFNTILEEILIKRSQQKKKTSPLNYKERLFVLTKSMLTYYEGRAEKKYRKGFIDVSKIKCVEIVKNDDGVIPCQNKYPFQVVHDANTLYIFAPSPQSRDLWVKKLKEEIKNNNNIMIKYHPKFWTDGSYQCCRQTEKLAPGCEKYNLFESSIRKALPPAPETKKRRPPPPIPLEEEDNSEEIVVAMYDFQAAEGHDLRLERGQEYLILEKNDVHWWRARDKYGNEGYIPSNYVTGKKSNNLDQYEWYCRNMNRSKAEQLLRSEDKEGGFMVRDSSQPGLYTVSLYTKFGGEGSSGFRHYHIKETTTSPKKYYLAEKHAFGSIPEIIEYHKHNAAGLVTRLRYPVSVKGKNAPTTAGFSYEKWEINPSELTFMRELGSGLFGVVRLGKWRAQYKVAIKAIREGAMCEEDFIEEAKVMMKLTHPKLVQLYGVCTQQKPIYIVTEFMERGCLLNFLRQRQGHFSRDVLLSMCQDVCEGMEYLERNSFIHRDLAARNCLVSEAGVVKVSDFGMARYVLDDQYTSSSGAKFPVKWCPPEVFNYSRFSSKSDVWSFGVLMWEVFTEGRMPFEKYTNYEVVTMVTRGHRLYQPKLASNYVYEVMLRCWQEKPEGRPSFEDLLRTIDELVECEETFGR
UniProt P29597: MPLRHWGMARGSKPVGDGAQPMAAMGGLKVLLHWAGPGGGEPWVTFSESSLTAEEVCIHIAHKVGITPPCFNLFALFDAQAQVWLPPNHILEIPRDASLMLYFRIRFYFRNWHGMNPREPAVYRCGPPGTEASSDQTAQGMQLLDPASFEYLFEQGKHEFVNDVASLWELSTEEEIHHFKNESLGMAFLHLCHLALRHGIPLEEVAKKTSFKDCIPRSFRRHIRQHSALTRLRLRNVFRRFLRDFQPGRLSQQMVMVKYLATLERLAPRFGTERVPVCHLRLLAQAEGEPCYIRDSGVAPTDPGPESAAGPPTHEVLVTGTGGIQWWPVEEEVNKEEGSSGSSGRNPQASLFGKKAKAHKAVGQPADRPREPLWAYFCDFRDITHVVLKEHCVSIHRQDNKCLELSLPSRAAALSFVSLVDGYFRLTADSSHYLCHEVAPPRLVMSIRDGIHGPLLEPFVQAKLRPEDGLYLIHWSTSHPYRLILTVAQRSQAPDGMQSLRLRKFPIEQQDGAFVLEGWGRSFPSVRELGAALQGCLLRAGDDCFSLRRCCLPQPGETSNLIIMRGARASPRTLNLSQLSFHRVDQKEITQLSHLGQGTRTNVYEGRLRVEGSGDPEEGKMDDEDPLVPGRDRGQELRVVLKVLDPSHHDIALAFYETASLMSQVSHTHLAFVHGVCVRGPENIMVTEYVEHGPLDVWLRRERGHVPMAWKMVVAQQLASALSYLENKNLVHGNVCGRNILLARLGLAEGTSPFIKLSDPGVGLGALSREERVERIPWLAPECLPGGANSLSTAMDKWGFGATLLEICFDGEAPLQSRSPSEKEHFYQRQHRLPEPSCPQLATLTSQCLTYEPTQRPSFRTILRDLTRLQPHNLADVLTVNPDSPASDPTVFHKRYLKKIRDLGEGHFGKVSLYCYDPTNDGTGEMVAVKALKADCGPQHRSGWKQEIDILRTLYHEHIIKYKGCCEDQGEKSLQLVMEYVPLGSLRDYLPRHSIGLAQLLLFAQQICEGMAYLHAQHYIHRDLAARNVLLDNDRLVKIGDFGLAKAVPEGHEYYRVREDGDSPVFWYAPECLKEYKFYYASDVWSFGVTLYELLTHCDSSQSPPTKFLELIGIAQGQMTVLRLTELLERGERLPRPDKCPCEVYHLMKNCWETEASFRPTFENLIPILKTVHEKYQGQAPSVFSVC
UniProt Q6PHR2: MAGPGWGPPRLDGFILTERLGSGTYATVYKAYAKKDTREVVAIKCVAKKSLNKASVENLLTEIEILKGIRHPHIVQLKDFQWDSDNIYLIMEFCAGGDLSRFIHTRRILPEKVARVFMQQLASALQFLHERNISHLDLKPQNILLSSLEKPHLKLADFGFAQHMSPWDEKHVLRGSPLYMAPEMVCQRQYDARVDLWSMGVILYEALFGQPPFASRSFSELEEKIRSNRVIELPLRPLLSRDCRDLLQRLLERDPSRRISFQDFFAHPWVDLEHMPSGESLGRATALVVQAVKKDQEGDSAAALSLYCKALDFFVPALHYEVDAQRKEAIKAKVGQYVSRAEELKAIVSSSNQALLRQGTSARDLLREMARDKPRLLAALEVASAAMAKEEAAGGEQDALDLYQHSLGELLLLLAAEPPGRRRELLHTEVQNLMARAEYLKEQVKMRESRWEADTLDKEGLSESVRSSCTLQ
UniProt P07947, whole entry, looked up: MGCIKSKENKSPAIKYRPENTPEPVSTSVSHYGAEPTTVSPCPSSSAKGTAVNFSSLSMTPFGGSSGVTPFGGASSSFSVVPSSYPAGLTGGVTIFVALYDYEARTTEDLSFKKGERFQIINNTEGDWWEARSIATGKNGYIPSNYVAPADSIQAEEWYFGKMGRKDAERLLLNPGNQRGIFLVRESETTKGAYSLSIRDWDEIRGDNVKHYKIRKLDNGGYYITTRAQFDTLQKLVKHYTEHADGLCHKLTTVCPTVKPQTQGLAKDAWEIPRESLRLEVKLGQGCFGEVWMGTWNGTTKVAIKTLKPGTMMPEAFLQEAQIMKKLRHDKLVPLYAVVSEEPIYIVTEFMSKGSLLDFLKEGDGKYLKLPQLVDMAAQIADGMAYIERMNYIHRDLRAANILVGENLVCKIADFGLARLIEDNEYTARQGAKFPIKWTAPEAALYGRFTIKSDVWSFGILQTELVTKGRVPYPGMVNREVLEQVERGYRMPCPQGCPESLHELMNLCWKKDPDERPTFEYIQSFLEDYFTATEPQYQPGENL
UniProt P31749: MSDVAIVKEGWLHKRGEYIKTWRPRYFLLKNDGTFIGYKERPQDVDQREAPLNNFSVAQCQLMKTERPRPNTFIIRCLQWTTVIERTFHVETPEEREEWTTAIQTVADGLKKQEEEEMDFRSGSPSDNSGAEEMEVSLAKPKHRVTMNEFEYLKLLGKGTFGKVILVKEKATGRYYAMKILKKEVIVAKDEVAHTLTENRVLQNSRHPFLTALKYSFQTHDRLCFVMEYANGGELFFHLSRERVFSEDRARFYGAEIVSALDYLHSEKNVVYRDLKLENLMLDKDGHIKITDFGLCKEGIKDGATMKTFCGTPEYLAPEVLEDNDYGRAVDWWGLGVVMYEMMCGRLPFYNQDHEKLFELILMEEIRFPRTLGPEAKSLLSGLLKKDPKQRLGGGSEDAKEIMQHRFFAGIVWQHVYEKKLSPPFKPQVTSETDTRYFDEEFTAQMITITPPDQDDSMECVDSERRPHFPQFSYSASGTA
UniProt P10398: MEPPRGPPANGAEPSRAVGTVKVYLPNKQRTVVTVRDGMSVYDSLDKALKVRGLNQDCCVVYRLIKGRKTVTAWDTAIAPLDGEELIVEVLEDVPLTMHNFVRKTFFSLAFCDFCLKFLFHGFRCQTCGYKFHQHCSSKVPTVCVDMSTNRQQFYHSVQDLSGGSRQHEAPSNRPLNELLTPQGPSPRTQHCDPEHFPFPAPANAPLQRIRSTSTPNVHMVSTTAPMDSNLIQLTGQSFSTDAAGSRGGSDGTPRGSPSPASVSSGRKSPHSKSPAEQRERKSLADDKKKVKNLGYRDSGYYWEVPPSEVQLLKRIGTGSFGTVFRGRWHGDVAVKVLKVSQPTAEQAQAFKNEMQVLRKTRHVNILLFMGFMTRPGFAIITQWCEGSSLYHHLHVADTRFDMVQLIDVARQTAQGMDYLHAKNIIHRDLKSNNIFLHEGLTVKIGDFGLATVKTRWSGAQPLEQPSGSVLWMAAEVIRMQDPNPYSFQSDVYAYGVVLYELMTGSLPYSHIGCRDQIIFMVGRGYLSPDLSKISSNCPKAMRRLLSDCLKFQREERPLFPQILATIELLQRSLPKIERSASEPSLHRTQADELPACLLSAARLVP
UniProt Q96GD4, whole entry: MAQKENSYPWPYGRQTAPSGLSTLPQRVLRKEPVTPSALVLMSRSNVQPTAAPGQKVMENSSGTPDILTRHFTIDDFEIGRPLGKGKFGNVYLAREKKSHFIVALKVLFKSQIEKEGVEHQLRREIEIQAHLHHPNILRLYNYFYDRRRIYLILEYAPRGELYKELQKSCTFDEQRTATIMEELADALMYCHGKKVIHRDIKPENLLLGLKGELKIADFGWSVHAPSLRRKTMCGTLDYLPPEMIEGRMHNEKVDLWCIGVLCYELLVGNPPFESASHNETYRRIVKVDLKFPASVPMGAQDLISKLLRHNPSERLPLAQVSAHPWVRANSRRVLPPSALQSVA
UniProt Q9UQB9: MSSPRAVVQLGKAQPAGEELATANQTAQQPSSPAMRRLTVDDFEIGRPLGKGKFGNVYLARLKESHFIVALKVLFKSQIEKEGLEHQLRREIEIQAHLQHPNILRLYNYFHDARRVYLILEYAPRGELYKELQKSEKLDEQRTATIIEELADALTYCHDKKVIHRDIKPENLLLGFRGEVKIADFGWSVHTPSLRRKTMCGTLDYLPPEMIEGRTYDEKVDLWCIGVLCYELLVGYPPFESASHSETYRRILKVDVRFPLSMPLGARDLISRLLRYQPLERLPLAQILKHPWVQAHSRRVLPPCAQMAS
UniProt Q06187: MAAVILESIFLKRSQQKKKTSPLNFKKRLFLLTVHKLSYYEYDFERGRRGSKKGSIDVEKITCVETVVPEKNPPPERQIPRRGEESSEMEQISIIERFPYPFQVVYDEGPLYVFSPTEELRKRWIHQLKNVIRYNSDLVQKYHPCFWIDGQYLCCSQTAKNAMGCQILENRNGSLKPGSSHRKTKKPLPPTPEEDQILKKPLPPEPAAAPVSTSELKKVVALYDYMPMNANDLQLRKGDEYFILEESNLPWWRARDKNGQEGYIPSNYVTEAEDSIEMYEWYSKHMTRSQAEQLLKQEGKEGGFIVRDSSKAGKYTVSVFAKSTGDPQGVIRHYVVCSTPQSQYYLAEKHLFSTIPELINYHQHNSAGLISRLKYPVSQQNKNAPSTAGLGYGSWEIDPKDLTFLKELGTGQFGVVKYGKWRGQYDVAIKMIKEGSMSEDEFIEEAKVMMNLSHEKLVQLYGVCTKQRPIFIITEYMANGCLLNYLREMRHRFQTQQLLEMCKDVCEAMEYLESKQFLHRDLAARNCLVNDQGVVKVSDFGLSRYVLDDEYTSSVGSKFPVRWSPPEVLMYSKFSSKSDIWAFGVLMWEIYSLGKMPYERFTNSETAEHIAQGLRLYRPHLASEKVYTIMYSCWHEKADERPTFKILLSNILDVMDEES
UniProt P15056, whole entry, looked up: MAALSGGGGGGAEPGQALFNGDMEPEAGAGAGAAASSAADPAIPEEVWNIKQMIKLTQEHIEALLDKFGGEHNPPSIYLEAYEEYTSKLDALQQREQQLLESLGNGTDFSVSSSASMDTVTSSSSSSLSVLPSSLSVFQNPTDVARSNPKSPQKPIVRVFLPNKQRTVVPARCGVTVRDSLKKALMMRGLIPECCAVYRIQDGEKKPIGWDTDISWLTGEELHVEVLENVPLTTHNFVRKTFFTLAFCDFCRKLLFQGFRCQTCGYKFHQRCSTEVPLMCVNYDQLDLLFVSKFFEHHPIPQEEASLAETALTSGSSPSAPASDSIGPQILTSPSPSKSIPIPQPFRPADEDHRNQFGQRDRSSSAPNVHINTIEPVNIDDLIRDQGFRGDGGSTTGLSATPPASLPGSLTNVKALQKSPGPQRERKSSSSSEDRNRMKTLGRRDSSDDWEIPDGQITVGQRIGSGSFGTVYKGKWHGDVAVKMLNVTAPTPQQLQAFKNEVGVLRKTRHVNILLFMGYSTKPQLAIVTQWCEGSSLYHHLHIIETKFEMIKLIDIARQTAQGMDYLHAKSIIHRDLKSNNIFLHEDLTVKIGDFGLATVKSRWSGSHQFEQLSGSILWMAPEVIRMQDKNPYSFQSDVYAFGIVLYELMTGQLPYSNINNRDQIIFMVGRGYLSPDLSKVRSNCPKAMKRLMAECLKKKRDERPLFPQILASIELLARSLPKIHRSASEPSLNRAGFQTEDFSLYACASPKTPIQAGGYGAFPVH

Key:
Settings in all cases: K562; 2-18 h
[1] = target: STK38 (UniProt Q15208); assay: kinase-Nluc reporter destabilization hit call (1 = scored as downregulated) (binary); higher = compound decreases kinase abundance
[2] = target: SYK (UniProt P43405); assay: as above
[3] = target: TEC (UniProt P42680); assay: as above
[4] = target: TYK2 (UniProt P29597); assay: as above
[5] = target: ULK3 (UniProt Q6PHR2); assay: as above
[6] = target: YES1 (UniProt P07947); assay: as above
[7] = target: ZAK (UniProt Q9NYL2); assay: as above
[8] = target: ZAP70 (UniProt P43403); assay: as above
[9] = target: ABL1 (UniProt P00519); assay: number of time points (of 5) at which kinase-Nluc abundance scored as decreased, DMSO-normalised (count); higher = more persistent destabilization
[10] = target: AKT1 (UniProt P31749); assay: as above
[11] = target: ALK (UniProt Q9UM73); assay: as above
[12] = target: ARAF (UniProt P10398); assay: as above
[13] = target: AURKA (UniProt O14965); assay: as above
[14] = target: AURKB (UniProt Q96GD4); assay: as above
[15] = target: AURKC (UniProt Q9UQB9); assay: as above
[16] = target: BLK (UniProt P51451); assay: as above
[17] = target: BMX (UniProt P51813); assay: as above
[18] = test system: BRAF_V600E; assay: as above
[19] = target: BTK (UniProt Q06187); assay: as above
[20] = target: BRAF (UniProt P15056); assay: as above

Structure (SMILES): CN1CCN(c2ccc(C(=O)Nc3n[nH]c4ccc(Cc5cc(F)cc(F)c5)cc34)c(NC3CCOCC3)c2)CC1 [Entrectinib] (2.5 µM)
- kinase-Nluc reporter destabilization hit call [1]: inactive: 0
- kinase-Nluc reporter destabilization hit call [2]: inactive: 0
- kinase-Nluc reporter destabilization hit call [3]: inactive: 0
- kinase-Nluc reporter destabilization hit call [4]: inactive: 0
- kinase-Nluc reporter destabilization hit call [5]: inactive: 0
- kinase-Nluc reporter destabilization hit call [6]: inactive: 0
- kinase-Nluc reporter destabilization hit call [7]: inactive: 0
- kinase-Nluc reporter destabilization hit call [8]: inactive: 0
- number of time points [9]: 0
- number of time points [10]: 0
- number of time points [11]: 0
- number of time points [12]: 0
- number of time points [13]: 0
- number of time points [14]: 0
- number of time points [15]: 0
- number of time points [16]: 0
- number of time points [17]: 0
- number of time points [18]: 0
- number of time points [19]: 0

Structure (SMILES): Cc1cc(CS(=O)(=O)c2ccccc2)cc(OCc2ccc(CN3CCC[C@@H]3CO)cc2)c1 [PF-543 (Citrate)] (10 µM)
- kinase-Nluc reporter destabilization hit call [1]: inactive: 0
- kinase-Nluc reporter destabilization hit call [2]: inactive: 0
- kinase-Nluc reporter destabilization hit call [3]: inactive: 0
- kinase-Nluc reporter destabilization hit call [4]: inactive: 0
- kinase-Nluc reporter destabilization hit call [5]: inactive: 0
- kinase-Nluc reporter destabilization hit call [6]: inactive: 0
- kinase-Nluc reporter destabilization hit call [7]: inactive: 0
- kinase-Nluc reporter destabilization hit call [8]: inactive: 0
- number of time points [9]: 0
- number of time points [10]: 0
- number of time points [11]: 0
- number of time points [12]: 0
- number of time points [13]: 0
- number of time points [14]: 0
- number of time points [15]: 0
- number of time points [16]: 0
- number of time points [17]: 0
- number of time points [20]: 0
- number of time points [19]: 0

Structure (SMILES): Cc1nc(N)sc1-c1ccnc(Nc2ccc(N3CCOCC3)cc2)n1 (10 µM)
- kinase-Nluc reporter destabilization hit call [1]: inactive: 0
- kinase-Nluc reporter destabilization hit call [2]: inactive: 0
- kinase-Nluc reporter destabilization hit call [3]: inactive: 0
- kinase-Nluc reporter destabilization hit call [4]: inactive: 0
- kinase-Nluc reporter destabilization hit call [5]: inactive: 0
- kinase-Nluc reporter destabilization hit call [6]: inactive: 0
- kinase-Nluc reporter destabilization hit call [8]: inactive: 0
- number of time points [9]: 4
- number of time points [10]: 0
- number of time points [11]: 0
- number of time points [12]: 0
- number of time points [13]: 3
- number of time points [14]: 0
- number of time points [15]: 0
- number of time points [16]: 0
- number of time points [17]: 3
- number of time points [20]: 0
- number of time points [18]: 0
- number of time points [19]: 0

Structure (SMILES): CC(C)(C)c1cc(NC(=O)Nc2ccc(-c3cn4c(n3)sc3cc(OCCN5CCOCC5)ccc34)cc2)no1 [Quizartinib] (10 µM)
- kinase-Nluc reporter destabilization hit call [1]: inactive: 0
- kinase-Nluc reporter destabilization hit call [2]: inactive: 0
- kinase-Nluc reporter destabilization hit call [3]: inactive: 0
- kinase-Nluc reporter destabilization hit call [4]: inactive: 0
- kinase-Nluc reporter destabilization hit call [5]: inactive: 0
- kinase-Nluc reporter destabilization hit call [6]: inactive: 0
- kinase-Nluc reporter destabilization hit call [7]: inactive: 0
- kinase-Nluc reporter destabilization hit call [8]: inactive: 0
- number of time points [9]: 4
- number of time points [10]: 0
- number of time points [11]: 2
- number of time points [12]: 0
- number of time points [13]: 0
- number of time points [14]: 0
- number of time points [15]: 0
- number of time points [16]: 4
- number of time points [17]: 0
- number of time points [18]: 0
- number of time points [19]: 0

Structure (SMILES): CNC(=O)c1cc(Oc2ccc(NC(=O)Nc3cc(C(C)(C)C)nn3-c3ccc4ncccc4c3)c(F)c2)ccn1 [Rebastinib] (2.5 µM)
- kinase-Nluc reporter destabilization hit call [1]: inactive: 0
- kinase-Nluc reporter destabilization hit call [2]: inactive: 0
- kinase-Nluc reporter destabilization hit call [3]: inactive: 0
- kinase-Nluc reporter destabilization hit call [4]: inactive: 0
- kinase-Nluc reporter destabilization hit call [5]: inactive: 0
- kinase-Nluc reporter destabilization hit call [6]: inactive: 0
- kinase-Nluc reporter destabilization hit call [7]: inactive: 0
- kinase-Nluc reporter destabilization hit call [8]: inactive: 0
- number of time points [9]: 0
- number of time points [10]: 0
- number of time points [11]: 3
- number of time points [12]: 0
- number of time points [13]: 3
- number of time points [14]: 3
- number of time points [15]: 1
- number of time points [16]: 3
- number of time points [17]: 4
- number of time points [18]: 3
- number of time points [19]: 0
